Experimental data published in PubChem BioAssay AID1487 (National Center for Advancing Translational Sciences (NCATS), 2009).
Among all 200,000 compounds or so, about 25 (0.01%) were called active. Inconclusive means that the source gave no clear call. Such entries were picked first, then a sample of the others. Calls come from the whole dose curve; as a rule, active = well fitted inhibition curve with a large enough effect in the signal ratio, with a control signal flat (not every such curve was filed as active); inconclusive = small, poorly fitted or top-dose-only effect, or effect the other way, or a change in a side signal; inactive = flat fitted curve, though single readings scatter; the % refers to the signal ratio. Potencies of inconclusive entries are doubtful fits and often do not repeat.
% is set by controls: 0 for no effect and ±100 for the full control effect; potency is the fitted concentration of half-maximal effect.

Test: qHTS Assay for Modulators of Lamin A Splicing
Conditions: HeLa LMNA splicing GFP/RFP minigene ratio, 48 h; ratio change, negative = inhibition: at 46.1 µM (top of the series) unless noted
Method in brief: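 Read-out is the ratio of GFP to DsRed2 object intensity, acquired by 488 nm laser-scanning cytometry on HeLa lamin A-EGFP minigene reporter cells. Compound incubation 48 hrs at 37 °C in Opti-MEM with 2% FBS; DMSO 0.5% final.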
With `O=C(O)c1cc2nc3c(c(C(F)(F)F)n2n1)CCCC3` the ratio change, negative = inhibition was inconclusive: 8.29% [at 46 µM].
For `COC(=O)c1ccc(OC(=O)c2ccccn2)cc1`, the ratio change, negative = inhibition was “inactive”.
For `COc1ccc(NC(=S)NC(NC(=O)c2cccc(Cl)c2)C(Cl)(Cl)Cl)c([N+](=O)[O-])c1` (stereo not drawn), the Potency was inconclusive: 35.5 µM [inhibitor, single point].
For `COc1ccc(-c2csc(NC(=O)C3CCCCN3S(=O)(=O)c3ccccc3)n2)cc1` (stereo not drawn), the Potency was inconclusive: 7.08 µM [fluorescent, partial curve].
With `CC(=O)N1CCN(c2nc3c(F)cc(F)cc3s2)CC1` the ratio change, negative = inhibition was inconclusive: 45.7% [at 46 µM].
With `COc1ccc(Cn2c(CNC(=O)Cc3cccc([N+](=O)[O-])c3)nc3cccnc32)cc1` the ratio change, negative = inhibition was “inactive”.
In the case of `CCOc1ccc(OCC)c(NC(=O)CSc2nc3ccccc3c(=O)n2C)c1`, the Potency is reported as inconclusive: 4.47 µM [falling, full curve].
With `Cc1cccc(Nc2nc(NCc3ccco3)nc(N3CCOCC3)n2)c1` the ratio change, negative = inhibition was inconclusive: -31.6%.
For `C[N+]1(CCOc2ccc([N+](=O)[O-])cc2)CCOCC1`, the ratio change, negative = inhibition was “inactive”.
With `O=C(C(Cc1ccccc1)N1C(=O)c2ccccc2C1=O)N1c2ccccc2CCc2ccccc21` (stereo not drawn) the Potency was inconclusive: 10 µM [falling, partial curve].
In the case of `OCl`, the ratio change, negative = inhibition is reported as inconclusive: -6.24%.
In the case of `CN(C)C(CNC(=O)c1cccc(S(=O)(=O)N(C)C)c1)c1ccccc1` (stereo not drawn), the ratio change, negative = inhibition is reported as inconclusive: -6.76%.
In the case of `O=[N+]([O-])c1ccc(/C=N/n2c(-c3cccnc3)n[nH]c2=S)cc1`, the ratio change, negative = inhibition is reported as “inactive”.
For `CNC(=O)[C@H]1O[C@@H](n2cnc3c(NCc4ccc(N)cc4)ncnc32)[C@H](O)[C@H]1O`, the ratio change, negative = inhibition was inconclusive: -19.3%.
In the case of `O=C1c2ccccc2C(=O)N1CCCC(=O)N1CCCc2ccccc21`, the ratio change, negative = inhibition is reported as “inactive”.
With `Cc1nc(NC(=O)c2ccc(OCC(C)C)cc2)sc1Cc1ccc2c(c1)OCO2` the ratio change, negative = inhibition was inconclusive: 17.3% [at 46 µM].
For `O=C(NC(NC(=S)Nc1ccccc1C(=O)O)C(Cl)(Cl)Cl)c1ccccc1` (stereo not drawn), the ratio change, negative = inhibition was inconclusive: 16.7% [at 46 µM].
In the case of `Cc1ccc(-c2noc(CSc3nnc(-c4ccncc4)n3-c3ccc(C)cc3)n2)cc1`, the ratio change, negative = inhibition is reported as “inactive”.
With `CCOc1cc(CNCCO)cc(Br)c1OCc1ccccc1` the ratio change, negative = inhibition was inconclusive: -47.9% [at 46 µM].
With `COc1ccccc1NC(=O)COC(=O)c1ccccc1OCC(=O)Nc1ccc(SC(F)F)cc1` the ratio change, negative = inhibition was “inactive”.
In the case of `CCN(Cc1ccncc1)Cc1c(O)ccc2cc(Br)ccc12`, the Potency is reported as inconclusive: 15.8 µM [inhibitor, partial curve, poor fit].
In the case of `CCCCN(C)C(=O)c1ccc2c(c1)N(Cc1cccc(F)c1)C(=O)c1ccccc1S2`, the ratio change, negative = inhibition is reported as inconclusive: -7.37% [at 46 µM].
In the case of `Cc1ccc(C(=O)CC(=O)c2ccc(C(C)(C)C)cc2)cc1`, the ratio change, negative = inhibition is reported as “inactive”.
In the case of `Cc1nnc(N/N=C/C2CC=CCC2)[nH]c1=O` (stereo not drawn), the ratio change, negative = inhibition is reported as inconclusive: -8.07% [at 46 µM].
In the case of `COc1cc(C(F)(F)F)nc2c(Br)c(C(C)(C)C)nn12`, the ratio change, negative = inhibition is reported as inconclusive: -16% [at 46 µM].
For `COc1ccccc1-c1nc2s/c(=C\c3cccs3)c(=O)n2n1`, the ratio change, negative = inhibition was “inactive”.
For `CCOC(=O)c1cc(-c2ccccc2)sc1NC(=S)Nc1cc(C)ccn1`, the ratio change, negative = inhibition was inconclusive: 9.35%.
In the case of `Cc1ccccc1NC(=O)COC(=O)c1ccc(S(C)(=O)=O)c([N+](=O)[O-])c1`, the ratio change, negative = inhibition is reported as inconclusive: -62.9% [at 46 µM].
With `CC(C)(C)NC(=O)CSc1nnc(Cc2ccccc2)n1CC1CCCO1` (stereo not drawn) the ratio change, negative = inhibition was “inactive”.
In the case of `O=C(/C=N\O)NCCCNCc1ccccc1`, the ratio change, negative = inhibition is reported as “inactive”.
In the case of `O=C(NCC1CCCO1)c1ccc(COc2ccc(Br)cc2)cc1` (stereo not drawn), the Potency is reported as inconclusive: 11.2 µM [falling, partial curve].
With `O=C(NCCc1ccccc1)C(=O)NCC(c1ccco1)S(=O)(=O)c1cccs1` (stereo not drawn) the ratio change, negative = inhibition was “inactive”.
With `CN/S(=N/S(=O)(=O)c1ccccc1)c1ccc(C)cc1` (stereo not drawn) the ratio change, negative = inhibition was “inactive”.
In the case of `Cc1oc2ncnc(N3CCCCC3)c2c1C(=O)NCC1CCN(Cc2cccc(F)c2)CC1`, the ratio change, negative = inhibition is reported as “inactive”.
In the case of `O=C(O)c1ccc(/C=C/c2nc3sc4c(c3c(=O)[nH]2)CCC4)cc1`, the ratio change, negative = inhibition is reported as inconclusive: 13.4% [at 46 µM].
With `CC1(C)Cc2c(C#N)c(OCC(=O)c3ccc(Cl)cc3)nc(-c3ccoc3)c2CO1` the ratio change, negative = inhibition was “inactive”.
With `COc1cccc(Cn2c(=O)cc(C)c3c(C)nn(C)c32)c1` the ratio change, negative = inhibition was “inactive”.
In the case of `C/C=C/c1ccc(OCc2cc(=O)n3cc(C)ccc3n2)c(OC)c1`, the ratio change, negative = inhibition is reported as inconclusive: -0.12% [at 46 µM].
With `Cc1c(C(=O)NCc2ccc(Cl)cc2)sc2nc3n(c(=O)c12)CCCCC3` the ratio change, negative = inhibition was inconclusive: -24.2% [at 46 µM].
With `CC(C)Oc1ccc(C(=O)NC2=NCCS2)cc1` the ratio change, negative = inhibition was inconclusive: 22.4% [at 46 µM].
With `CC(=O)C(Sc1nc(N(C)C)nc(N(C)C)n1)C(=O)Nc1ccccc1` (stereo not drawn) the ratio change, negative = inhibition was inconclusive: -32.5% [at 46 µM].
With `CCSc1nnc(-c2ccc(S(=O)(=O)NCc3cccs3)cc2)o1` the Potency was inconclusive: 35.5 µM [fluorescent, single point].
For `O=C(CN1C(=O)c2ccccc2S1(=O)=O)Nc1ccccc1`, the Potency was inconclusive: 0.02 µM [activator, full curve, poor fit].
For `O=S(=O)(NC1c2cccc3cccc(c23)C1N1CCNCC1)c1ccccc1` (stereo not drawn), the ratio change, negative = inhibition was “inactive”.
For `Cc1csc(CN(C)C(=O)CC2C(=O)NCCN2CC(C)(C)C)n1` (stereo not drawn), the ratio change, negative = inhibition was “inactive”.
For `O=[N+]([O-])c1ccccc1-c1ccc(/C=N/n2cnnc2)o1`, the ratio change, negative = inhibition was inconclusive: 5.51%.
In the case of `CC(=O)N1CCOc2cc(S(=O)(=O)Nc3cccc(C(F)(F)F)c3)c(Cl)cc21`, the ratio change, negative = inhibition is reported as “inactive”.
With `O=C(N/N=C/c1ccc(OC(=O)c2ccccc2)c([N+](=O)[O-])c1)c1ccc(O)cc1` the ratio change, negative = inhibition was “inactive”.
In the case of `Cc1ccc(-c2ccc(C(=O)O)c(C)n2)cc1`, the ratio change, negative = inhibition is reported as “inactive”.
In the case of `COc1ccc(CCNC(=O)CSC(=O)c2ccccc2)cc1OC`, the ratio change, negative = inhibition is reported as “inactive”.
In the case of `CCC(=O)N(CCC(c1ccccc1)c1ccco1)Cc1cccs1` (stereo not drawn), the ratio change, negative = inhibition is reported as inactive: -2.04% [at 0.0737 µM].
In the case of `Fc1ccc(Nc2ccnc(-c3ccccc3C(F)(F)F)n2)cc1`, the ratio change, negative = inhibition is reported as “inactive”.
With `COc1ccc(C2=CC(=O)N(Nc3ccccc3)C2=O)cc1` the ratio change, negative = inhibition was inconclusive: -39.5% [at 46 µM].
In the case of `CON(c1nc(N(C)C)nc(N(C)C)n1)S(=O)(=O)c1ccccc1Cl`, the ratio change, negative = inhibition is reported as “inactive”.
For `Cc1cccc(N/C(N)=N/c2nc(C(F)(F)F)cc(C(F)(F)F)n2)c1`, the ratio change, negative = inhibition was inconclusive: 8.4% [at 46 µM].
With `CCN(CC)S(=O)(=O)c1cccc(S(=O)(=O)c2cccc(S(=O)(=O)N(CC)CC)c2)c1` the ratio change, negative = inhibition was inconclusive: -34.4%.
With `Cn1c(NC(=O)Cc2cccc3ccccc23)cc(=O)n(C)c1=O` the ratio change, negative = inhibition was inactive: 22% [at 9.22 µM].
With `COc1ccc(OC)c(/C=N/NC(=O)c2cc(-c3ccc(C)o3)nc3ccccc23)c1` the ratio change, negative = inhibition was inconclusive: 6.62%.
For `COC(=O)N/N=C\c1cc(Br)ccc1OCc1ccccc1`, the Potency was inconclusive: 35.5 µM [fluorescent, single point].
In the case of `Cn1c(=O)c2c(nc(CN3CCN(C(=O)c4ccco4)CC3)n2Cc2ccccc2)n(C)c1=O`, the ratio change, negative = inhibition is reported as “inactive”.
With `CCOC(=O)c1cc(-c2cccnc2)nn1-c1ccccc1` the ratio change, negative = inhibition was inconclusive: 3.21% [at 46 µM].
In the case of `Cc1ccc(C(=O)N2CCc3cc(CNS(=O)(=O)c4ccc(Cl)s4)ccc32)cc1`, the ratio change, negative = inhibition is reported as inconclusive: 1.57% [at 46 µM].
With `O=C(O)c1ccc(CN2C(=O)CSC2=S)cc1` the ratio change, negative = inhibition was inconclusive: -31.9%.
In the case of `Cc1cccc(CNc2nc(-c3ccccc3CN(C)C)nc3ccccc23)c1`, the ratio change, negative = inhibition is reported as inconclusive: 15.9%.
For `COc1ccc(OC)c(N2C(N)=NC(N)=NC23CCCC3)c1`, the ratio change, negative = inhibition was “inactive”.
With `CC(=O)c1ccc(-c2ccc(C(=O)NC3CCCCCC3)o2)cc1` the ratio change, negative = inhibition was inconclusive: -10.6% [at 46 µM].
In the case of `COc1ccc2cnnc(SCC(=O)Nc3ccccc3)c2c1OC`, the ratio change, negative = inhibition is reported as “inactive”.
With `O=C(NCC(c1cccnc1)N1CCc2ccccc2C1)c1ccc(F)c(F)c1` (stereo not drawn) the ratio change, negative = inhibition was “inactive”.
For `O=C(Nc1nncs1)c1cccc(S(=O)(=O)N2CCc3ccccc32)c1`, the Potency was inconclusive: 10 µM [inhibitor, partial curve].
For `N#Cc1c(NC(=O)c2cnn3cccnc23)sc2c1CCCC2`, the ratio change, negative = inhibition was inconclusive: -2.24% [at 46 µM].
For `Cc1ccc(CS(=O)(=O)c2ncn[nH]2)cc1`, the ratio change, negative = inhibition was “inactive”.
In the case of `CC(/C=C/C(=O)c1ccc(C)cc1)=C\c1ccccc1`, the ratio change, negative = inhibition is reported as “inactive”.
For `CCC(=O)N1c2ccccc2-c2nnc(SC)nc2OC1c1ccc(N(C)C)cc1` (stereo not drawn), the ratio change, negative = inhibition was “inactive”.
For `O=C(O)/C=C/c1cccc(OCc2ccccc2)c1`, the ratio change, negative = inhibition was inconclusive: -13.1% [at 46 µM].
In the case of `CCc1c(C)sc2c1CCN(Cc1cccc(F)c1)C2c1ccccc1` (stereo not drawn), the ratio change, negative = inhibition is reported as inconclusive: -13.8% [at 46 µM].
In the case of `CC(=O)N1CCc2cc(CNS(=O)(=O)c3ccc(F)cc3)ccc21`, the Potency is reported as inconclusive: 0.141 µM [activator, full curve, poor fit].
In the case of `OCCCNc1c2c(nc3cc(-c4ccc(Cl)cc4)nn13)CCC2`, the ratio change, negative = inhibition is reported as inconclusive: 17% [at 46 µM].
With `O=[N+]([O-])c1cc2c(cc1/C=N\NS(=O)(=O)c1ccccc1)OCO2` the ratio change, negative = inhibition was “inactive”.
For `CC(C)(C)n1nnnc1C(c1cccs1)N(Cc1cccnc1)Cc1ccccc1Cl` (stereo not drawn), the Potency was inconclusive: 35.5 µM [inhibitor, single point].
In the case of `COc1ccc2nc(NC(=S)NC(=O)c3ccco3)sc2c1`, the ratio change, negative = inhibition is reported as inconclusive: 46.1% [at 46 µM].
In the case of `O=C1OCC2=C1C(c1ccccc1)CC(=O)N2c1cccc(F)c1` (stereo not drawn), the Potency is reported as inconclusive: 35.5 µM [inhibitor, single point].
With `Cc1cc(-c2nn(-c3ccccc3)cc2/C=C2\SC(N)=NC2=O)ccc1OC(C)C` the ratio change, negative = inhibition was “inactive”.
For `N#Cc1c(NC(=O)CSc2n[nH]c(N)n2)oc(-c2ccccc2)c1-c1ccccc1`, the ratio change, negative = inhibition was inconclusive: 27.1%.
